Laboratory results from patent US20160304578A1 (XYPHOS BIOSCIENCES, published 2016).
No constants are given. Whether binding was seen depends on the method and setting. Some entries that bind do so weakly or less than the wild type. For some assays here: Tags and fused reporters may be left off the sequences shown.

Protein sequences, listed by entry. Tags and fused reporters are not part of them. Residues count along the entry.
UniProt P22607, residues 23-375: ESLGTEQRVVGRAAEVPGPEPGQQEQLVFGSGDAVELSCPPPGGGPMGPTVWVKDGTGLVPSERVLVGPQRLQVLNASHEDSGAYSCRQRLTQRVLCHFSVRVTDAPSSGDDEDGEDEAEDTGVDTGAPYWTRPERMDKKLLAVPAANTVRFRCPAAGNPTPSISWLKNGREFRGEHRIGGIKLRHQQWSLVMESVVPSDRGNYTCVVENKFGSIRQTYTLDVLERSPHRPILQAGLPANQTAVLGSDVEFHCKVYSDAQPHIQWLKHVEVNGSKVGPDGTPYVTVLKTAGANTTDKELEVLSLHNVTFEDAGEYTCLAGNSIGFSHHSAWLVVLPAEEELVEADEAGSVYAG

Columns and labels:
[1] = biological target: FGFR3 (coated on ELISA plates) (UniProt P22607); assay: ELISA on FGFR3-coated wells after 1 hour of heat
[2] = biological target: FGFR3 (coated on ELISA plates) (UniProt P22607); assay: ELISA, FGFR3-coated wells, detection with NKG2D-Fc
[3] = biological target: FGFR3 (coated on ELISA plates) (UniProt P22607); assay: ELISA, FGFR3 coated at 2 ug/ml, detection with NKG2D-Fc and anti-Fc-HRP
human NKG2D-Fc [4] = biological target: T1, human NKG2D-Fc (human, UniProt P26718 78-216, limits assumed); assay: ELISA, protein captured on FGFR3 is detected with NKG2D-Fc and anti-Fc-HRP
T1 construct: not shown: Fc part
T1 sequence (looked up): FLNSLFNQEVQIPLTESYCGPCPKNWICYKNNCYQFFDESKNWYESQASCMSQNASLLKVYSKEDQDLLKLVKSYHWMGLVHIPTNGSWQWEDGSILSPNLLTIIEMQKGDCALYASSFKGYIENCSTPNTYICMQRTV

[5] = biological target: FGFR3 (coated on ELISA plates) (UniProt P22607); assay: ELISA on FGFR3-coated wells after 1 hour of the protein at 60 °C and 1 hour back at room temperature
[6] = biological target: FGFR3 (coated on ELISA plates) (UniProt P22607); assay: ELISA on FGFR3-coated wells after 1 hour of the protein at 70 °C and 1 hour back at room temperature
[7] = biological target: FGFR3 (coated on ELISA plates) (UniProt P22607); assay: ELISA on FGFR3-coated wells after 1 hour of the protein at 80 °C and 1 hour back at room temperature
[8] = biological target: FGFR3 (coated on ELISA plates) (UniProt P22607); assay: ELISA on FGFR3-coated wells after 1 hour of the protein at 90 °C and 1 hour back at room temperature
[9] = biological target: FGFR3 (coated on ELISA plates) (UniProt P22607); assay: ELISA: FGFR3 coated on the plate, sMICA protein titrated, bound protein detected with NKG2D-Fc and anti-Fc-HRP
biotinylated human NKG2D = biological target: T2, biotinylated human NKG2D (human, UniProt P26718 78-216, limits assumed, biotinylated (site not stated)); assay: biolayer interferometry (Octet), biotinylated human NKG2D
T2 construct: also called recombinant biotinylated NKG2D
T2 sequence (looked up): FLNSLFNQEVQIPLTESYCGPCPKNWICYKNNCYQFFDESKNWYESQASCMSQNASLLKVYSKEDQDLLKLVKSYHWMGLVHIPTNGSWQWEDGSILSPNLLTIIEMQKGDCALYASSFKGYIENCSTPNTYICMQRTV

human NKG2D-Fc [10] = biological target: T1, human NKG2D-Fc; assay: competition ELISA: human NKG2D-Fc binding to plate-coated MICA
mouse NKG2D-Fc (mouse) [11] = biological target: T3, mouse NKG2D-Fc (mouse) (UniProt O54709); assay: competition ELISA: mouse NKG2D-Fc binding to plate-coated MICA
T3 sequence (looked up): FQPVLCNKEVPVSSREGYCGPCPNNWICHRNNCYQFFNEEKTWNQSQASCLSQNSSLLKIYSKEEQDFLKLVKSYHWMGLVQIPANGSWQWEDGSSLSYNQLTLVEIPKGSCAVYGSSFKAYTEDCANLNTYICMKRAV

mouse NKG2D-Fc (mouse) [12] = biological target: T3, mouse NKG2D-Fc (mouse); assay: competition ELISA: variant titrated against mouse NKG2D-Fc binding to plate-coated WT sMICA, detection with anti-Fc-HRP

Measured: binding

B1: MICA-α3-iFv.2 (designed binder)
chain: EPHSLRYNLTVLSWDGSVQSGFLTEVHLDGQPFLRCDRQKCRAKPQGQWAEDVLGNKTWDRETRDLTGNGKDLRMTLAHIKDQKEGLHSLQEIRVCEIHEDNSTRSSQHFYYDGELFLSQNLETKEWTMPQSSRAQTLAMNVRNFLKEDAMKTKTHYHAMHADCLQELRRYLKSGVVLRRTVPPMVQVTRSEASGGSGDRVTITCRASQDVSTAVAWYQQKPGKAPKLLIYSASFLYSGVPSRFSGSGSGTDFTLTISSLQPEDFATYYCQQSYTTPPTFGQGTKVEIKGGSSRSSSSGGGGSGGGGEVQLVESGGGLVQPGGSLRLSCAASGFTFTSTGISWVRQAPGKGLEWVGRIYPTNGSTNYADSVKGRFTISADTSKNTAYLQMNSLRAEDTAVYYCARTYGIYDLYVDYTEYVMDYWGQGTLVTVSSGGSSRSSSSGGGGSGGGGDIQMTQSPSSLSASGGSGQITVTCRASGFYPWNITLSWRQDGVSLSHDTQQWGDVLPDGQGTYQTWVATRISQGEEQRFTCYMEHSGQHSTHPVPSGKGSHHHHHH
binds: [1] | [2] | [3] | human NKG2D-Fc [4] | [5] | [6] | [7] | [8] | [9]

B2: α1-α2 variant 15 (designed binder)
chain: EPHSLRYNLTVLSWDGSVQSGFLTEVHLDGQPFLRCDRQKCRAKPQGQWAEDVLGNKTWDRETRDLTGWGKDLRMTLAHIKDQKEGLHSLQEIRVCEIHEDNSTRSSQHFYYDGELFLSQNLETNEWTMPQSSRAQTLAMNVRNFLKEDAMETDTHYHAMRADCLQELRRYLKSGVVLRRTVPPMVQVTRSEASGGSGDRVTITCRASQDVSTAVAWYQQKPGKAPKLLIYSASFLYSGVPSRFSGSGSGTDFTLTISSLQPEDFATYYCQQSYTTPPTFGQGTKVEIKGGSSRSSSSGGGGSGGGGEVQLVESGGGLVQPGGSLRLSCAASGFTFTSTGISWVRQAPGKGLEWVGRIYPTNGSTNYADSVKGRFTISADTSKNTAYLQMNSLRAEDTAVYYCARTYGIYDLYVDYTEYVMDYWGQGTLVTVSSGGSSRSSSSGGGGSGGGGDIQMTQSPSSLSASGGSGQITVTCRASGFYPWNITLSWRQDGVSLSHDTQQWGDVLPDGQGTYQTWVATRISQGEEQRFTCYMEHSGQHSTHPVPSGKGSHHHHHH
binds: biotinylated human NKG2D | human NKG2D-Fc [10] | mouse NKG2D-Fc (mouse) [11] | mouse NKG2D-Fc (mouse) [12]

B3: α1-α2 variant 18 (designed binder)
chain: EPHSLRYNLTVLSWDGSVQPGFLTEVHLDGQPFLRCDRQKCRAKPQGQWAEDVLGNKTWDRETRDLTLWGKDLRMTLAHIKDQKEGLHSLQEIRVCEIHEDNSTRSSQHFYYDGELFLSQNLETLEWTMPQSSRAQTLAMNVRNFLKEDAMETDTHYHAMRADCLQELRRYLKSGVVLRRTVPPMVQVTRSEASGGSGDRVTITCRASQDVSTAVAWYQQKPGKAPKLLIYSASFLYSGVPSRFSGSGSGTDFTLTISSLQPEDFATYYCQQSYTTPPTFGQGTKVEIKGGSSRSSSSGGGGSGGGGEVQLVESGGGLVQPGGSLRLSCAASGFTFTSTGISWVRQAPGKGLEWVGRIYPTNGSTNYADSVKGRFTISADTSKNTAYLQMNSLRAEDTAVYYCARTYGIYDLYVDYTEYVMDYWGQGTLVTVSSGGSSRSSSSGGGGSGGGGDIQMTQSPSSLSASGGSGQITVTCRASGFYPWNITLSWRQDGVSLSHDTQQWGDVLPDGQGTYQTWVATRISQGEEQRFTCYMEHSGQHSTHPVPSGKGSHHHHHH
binds: human NKG2D-Fc [10] | mouse NKG2D-Fc (mouse) [11] | mouse NKG2D-Fc (mouse) [12]

B4: α1-α2 variant 20 (designed binder)
chain: EPHSLRYNLTVLSWDGSVQSGFLTEVHLDGQPFLRCDRQKCRAKPQGQWAEDVLGNKTWDRETRDLTAWGKDLRMTLAHIKDQKEGLHSLQEIRVCEIHEDNSTRSSQHFYYDGELFLSQNLETLEWTMPQSSRAQTLAMNVRNFLKEDAMQTDTHYRAMHADCLFELRRYLKSGVVLRRTVPPMVQVTRSEASGGSGDRVTITCRASQDVSTAVAWYQQKPGKAPKLLIYSASFLYSGVPSRFSGSGSGTDFTLTISSLQPEDFATYYCQQSYTTPPTFGQGTKVEIKGGSSRSSSSGGGGSGGGGEVQLVESGGGLVQPGGSLRLSCAASGFTFTSTGISWVRQAPGKGLEWVGRIYPTNGSTNYADSVKGRFTISADTSKNTAYLQMNSLRAEDTAVYYCARTYGIYDLYVDYTEYVMDYWGQGTLVTVSSGGSSRSSSSGGGGSGGGGDIQMTQSPSSLSASGGSGQITVTCRASGFYPWNITLSWRQDGVSLSHDTQQWGDVLPDGQGTYQTWVATRISQGEEQRFTCYMEHSGQHSTHPVPSGKGSHHHHHH
notes: Expressed in HEK293 (Expi293)
binds: biotinylated human NKG2D

B5: α1-α2 variant 17 (designed binder)
chain: EPHSLRYNLTVLSWDGSVQSGFLTEVHLDGQPFLRCDRQKCRAKPQGQWAEDVLGNKTWDRETRDLTLWGKDLRMTLAHIKDQKEGLHSLQEIRVCEIHEDNSTRSSQHFYYDGELFLSQNLETLEWTMPQSSRAQTLAMNVRNFLKEDAMETDTHYHAMRADCLQELRRYLKSGVVLRRTVPPMVQVTRSEASGGSGDRVTITCRASQDVSTAVAWYQQKPGKAPKLLIYSASFLYSGVPSRFSGSGSGTDFTLTISSLQPEDFATYYCQQSYTTPPTFGQGTKVEIKGGSSRSSSSGGGGSGGGGEVQLVESGGGLVQPGGSLRLSCAASGFTFTSTGISWVRQAPGKGLEWVGRIYPTNGSTNYADSVKGRFTISADTSKNTAYLQMNSLRAEDTAVYYCARTYGIYDLYVDYTEYVMDYWGQGTLVTVSSGGSSRSSSSGGGGSGGGGDIQMTQSPSSLSASGGSGQITVTCRASGFYPWNITLSWRQDGVSLSHDTQQWGDVLPDGQGTYQTWVATRISQGEEQRFTCYMEHSGQHSTHPVPSGKGSHHHHHH
binds: human NKG2D-Fc [10] | mouse NKG2D-Fc (mouse) [11] | mouse NKG2D-Fc (mouse) [12]
